Laboratory results published in PubChem BioAssay AID1347426 (Functional Genomics Laboratory (NCATS/FGL), 2020).
In all, about 31,000 sequences went through this assay and about 1,400 (4.5%) were called active.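 Rule for the calls: active = median seed-adjusted z-score above 1 or below -1; inactive = the rest.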 The list shows a part of the results.

Assay: Novel Modifiers of Survival Motor Neuron (SMN) Protein: Gene Identification via Genome-wide siRNA Screen;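 note: luminescence tracks full-length SMN protein made from the SMN2 reporter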
Details: HEK293T SMN2-luciferase reporter, siRNA knockdown, 72 h; actives lie on both sides
Summary of the method: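 Genome-wide siRNA screen (10418 genes, 3 siRNAs each, 1 pmol per well) by reverse transfection in HEK293T cells stably carrying an SMN2-luciferase reporter; luminescence after 72 hours, normalized to negative-control siRNA, log10-transformed, MAD-scored.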

Row | Sequence | median seed-adjusted z-score
1 | GCCCUGAACAAGUUGCUCATT against TRPV6 | inactive: -0.511
2 | GGAAAACCUCAAUUGCUAUTT against ATP5A1 | inactive: -0.974
3 | CCACGAAAACGAAUGACUATT against TNFRSF17 | inactive: -0.0138
4 | GGAGAUAAGAGAUCAUAUUTT against OXNAD1 | inactive: 0.36
5 | GGAGAAUAUUAACUAUUGATT against COL21A1 | inactive: 0.296
6 | AGCAAAUGCUGUCAGAGAATT against TGIF2LX | inactive: -0.568
7 | GUACUUCGAUGGACUCAAATT against RDH13 | inactive: 0.208
8 | GAUUCAGAAUGGGAGGCUUTT against TXNDC13 | inactive: 0.365
9 | GAUCAAUGAUAGUAUCCGATT against ERMP1 | inactive: 0.231
10 | GCGCAUCUAUCAACCCAAUTT against MLNR | inactive: -0.038
11 | CCAACCACCAGAUCUAUGATT against LBX1 | inactive: -0.36
12 | CUAUGCCCGUGGUCACUAUTT against TUBA4A | inactive: -0.594
13 | GAACGUAGAUUAGCUUAUATT against TBK1 | inactive: 0.0578
14 | GCAAUGAGGUGGAGCCUGATT against TARBP2 | inactive: 0.068
15 | CAGCAUAUUUAAGUUCUUUTT against AMACR | inactive: -0.591
16 | UGAUCGCUCUCAAGCCGGUTT against POU4F3 | inactive: 0
17 | CAAUGAGCCUGGUGUUAGATT against GPN1 | inactive: -0.14
18 | GGCAGAUGGUGGGACCUAUTT against EXOSC4 | inactive: 0.443
19 | GCAACUGUGAAAGCACUAATT against MAP2K4 | inactive: -0.366
20 | GUCUGUAGUUCACCCGUUATT against USP9Y | inactive: 0.012
21 | CAGCAGGUGUACAAAACCATT against TNP2 | inactive: -0.346
22 | CGCCGAGAGUGUUUUGGCATT against NEU4 | inactive: -0.152
23 | GCUGAUCCAGUGUCUCUUUTT against HSF4 | inactive: 0.926
24 | AGUAUCAUCUGUUACUAUATT against MAP2K1IP1 | inactive: 0.333
25 | AGCUGUCUCUGAUCCGCAATT against CCND2 | inactive: -0.819
26 | CAGUUGCUAUGAGACUUGATT against CYP3A7 | inactive: -0.107
27 | CCCAUUUAAGGAGAACUAUTT against MPPE1 | inactive: -0.409
28 | CUCACUAAGAAGACCCAAATT against VEGFB | inactive: 0
29 | CCUCAGAUCUGAUGUCCAATT against VPS4A | inactive: 0
30 | GGACAAAGACUGGUACGUUTT against HTT | inactive: -0.234

As entered above:
AGCUGUCUCUGAUCCGCAATT against CCND2 | median seed-adjusted z-score: inactive: -0.819
GCCCUGAACAAGUUGCUCATT against TRPV6 | median seed-adjusted z-score: inactive: -0.511
